PubChem BioAssay AID602196 – INSERM | 2012

Assay: 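Knock-downs that protect lung cancer cells from cisplatin or sensitise them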
Cells: human A549 lung cancer cells
Reagents: siRNA pair against human genes
Duration: 48 h transfection before cisplatin; time from cisplatin to read-out not stated
Challenge: cisplatin at a dose killing half of control-siRNA cells; exact dose and duration not given
Measured: 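Cisplatin cell death as a shift from the 50% death seen with control siRNA; siRNAs toxic or growth-blocking alone scored 0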
Direction: two-siRNA summed score (-2 to +2): higher = both siRNAs protect from cisplatin killing; -2 means both sensitise
Active means: 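siRNAs harmful alone (LDH or WST-1) get 0; others get +1 for less and -1 for more cisplatin killing; genes are active when the two siRNAs give the same sign, summing to ±2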
Meaning of the calls: active = both siRNAs shift cisplatin killing the same way; inactive = no consistent shift, or siRNA harmful alone
Shown is a random part of about 23,000 reagents tested. Of all reagents, 455 (2%) got an active call. 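Active includes both protection and sensitisation; some change values fall well beyond the stated -50 to +50 range.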 Entries without a mark were called inactive. Reagents against one gene are numbered here. Not all columns of the deposit are shown. Reagent sequences are not shown. The record does not give: the amount of reagent.

gene	reagent no.	two-siRNA summed score (-2 to +2)
MUC19	1	0
OR3A1	1	-1
TMEM63B	1	0
MIP	1	0
MGC16279	1	0
RAB3GAP1	1	1
GEMIN8	1	0
PLCD4	1	0
LOC401252	1	1
CUL3	1	-1
NT5E	1	1
CCNH	1	0
CDC42BPA	1	1
LOC342934	1	0
LOC441119	1	1
TCP10L3	1	0
PUS7L	1	0
FBXW10	1	1
LOC147468	1	0
BTBD8	1	0
BTBD8	2	0
SETD4	1	0
SREBF1	1	0
SBK1	1	0
LOC400340	1	-1
TTLL3	1	0
SPATA33	1	0
FOXS1	1	1
SERPINB12	1	0
DNAJC21	1	0
DNAJC21	2	1
RNF135	1	-1
LOC340518	1	0
LOC401531	1	0
LOC389939	1	-1
LUZP4	1	0
LOC339351	1	0
KRTAP23-1	1	1
LOC389888	1	0

Part of the list above in another layout.
{"gene": "SPATA33", "reagent no.": 1, "two-siRNA summed score (-2 to +2)": 0}
{"gene": "FOXS1", "reagent no.": 1, "two-siRNA summed score (-2 to +2)": 1}
{"gene": "SERPINB12", "reagent no.": 1, "two-siRNA summed score (-2 to +2)": 0}
